In this experiment the test system is B6C3F1 mice, intracerebral ependymoblastoma, median survival T/C. The experiment can be described thus: NCI In Vivo Anticancer Drug Screen. Data for tumor model Ependymoblastoma (intracerebral) in B6C3F1 mice. To be noted: T/C endpoint: median survival time, higher T/C = longer survival. As for the experimental part:
The antitumor activity of compounds was measured in mice bearing transplantable tumors. Survival or tumor size were measured and the results are expressed as the measurement made in the treated group (T) divided by the measurement made in the vehicle treated control group (C). The tumor model used in this assay is Ependymoblastoma (intracerebral) in B6C3F1 mice

The mark [1] stands for this setting: dose: 4.0 mg/kg/injection, schedule: Q01DX005 (ip), vehicle: water.
The mark [2] stands for this setting: dose: 8.0 mg/kg/injection, schedule: Q01DX005 (ip), vehicle: water.
Where [3] appears, read: dose: 16.0 mg/kg/injection, schedule: Q01DX005 (ip), vehicle: water.
Setting [4] is: dose: 200.0 mg/kg/injection, schedule: Q01DX005 (ip), vehicle: Klucel (hydroxypropylcellulose) (HPC).
Setting [5] is: dose: 400.0 mg/kg/injection, schedule: Q01DX005 (ip), vehicle: Klucel (hydroxypropylcellulose) (HPC).
The mark [6] stands for this setting: dose: 16.0 mg/kg/injection, schedule: Q01DX001 (ip), vehicle: saline.
Where [7] appears, read: dose: 32.0 mg/kg/injection, schedule: Q01DX001 (ip), vehicle: saline.

The list does not hold the whole screen: it gathers tests that were run many times, whatever their T/C, doses with no T/C, and many T/C values between a quarter and a half above the control. Further doses and runs are listed elsewhere. T/C: endpoint of the treated group in % of that of the vehicle group. Some entries give survivors of the animals treated and no T/C: the source holds a T/C of zero for them, seemingly a mark for toxic or unscored doses. Some survivor counts are full or nearly so, which does not show that the dose was tolerated: the source hardly ever lists a survival T/C far under the control, and the zero likely stands for such cases as well. Counts of survivors are from the toxicity check (mostly the fifth day) where no day follows; animals may have died later. Schedules are NCI's codes, taken here to give the interval after Q, in days (D) or hours (H), and the number of doses after X. Marks such as (2×) say how often a value occurs here. Some doses were run more than once; their values stand side by side, smallest first. For survival time, this PubChem deposit counts one and a half times the control or more as active, and values a quarter to a half above the control carry no call in these data; other NCI protocols may use other cut-offs. Some T/C values carry the count of animals alive at the toxicity check (mostly the fifth day); where none is given, no animal had died by that day.

As for `N=C(N)SCc1c2ccccc2c(CSC(=N)N)c2ccccc12`, the T/C (dose: 5.0 mg/kg/injection, schedule: Q01DX001 (ip), vehicle: Klucel (hydroxypropylcellulose) (HPC)) is 97 [survivors not given], 101 [survivors not given], 102, 109 % of control [survivors not given]; the T/C (dose: 10.0 mg/kg/injection, schedule: Q01DX001 (ip), vehicle: Klucel (hydroxypropylcellulose) (HPC)) was 98 [survivors not given], 102, 103 [survivors not given], 105 % of control [survivors not given]; the T/C (dose: 20.0 mg/kg/injection, schedule: Q01DX001 (ip), vehicle: Klucel (hydroxypropylcellulose) (HPC)) is 95 [survivors not given], 100 [survivors not given], 101 [survivors not given], 107 % of control; the T/C (dose: 40.0 mg/kg/injection, schedule: Q01DX001 (ip), vehicle: Klucel (hydroxypropylcellulose) (HPC)) is 97, 102 [survivors not given], 105 [survivors not given], 109 % of control [survivors not given].
`COc1cccc2c1C(=O)c1c(O)c3c(c(O)c1C2=O)C[C@@](O)(C(=O)CO)C[C@@H]3OC1CC(N)C(O)C(C)O1` (some centres undefined): the T/C by setting is: (dose: 0.5 mg/kg/injection, schedule: Q03HX008 (ip), vehicle: saline) 127 % of control; (dose: 2.0 mg/kg/injection, schedule: Q01DX005 (ip), vehicle: saline) 132 % of control. For the same compound, the survivor count was 10 of 10 (dose: 1.0 mg/kg/injection, schedule: Q03HX008 (ip), vehicle: saline); 4 of 10 and 8 of 10 (dose: 2.0 mg/kg/injection, schedule: Q03HX008 (ip), vehicle: saline); 10 of 10 (dose: 4.0 mg/kg/injection, schedule: Q01DX005 (ip), vehicle: suspension in saline); 9 of 10 and 10 of 10 under setting [1]; 10 of 10 (2×) (dose: 8.0 mg/kg/injection, schedule: Q01DX005 (ip), vehicle: saline); 7 of 10 and 9 of 10 under setting [2]. The survivor count was 7 of 10 (dose: 16.0 mg/kg/injection, schedule: Q01DX005 (ip), vehicle: saline); 1 of 10 under setting [3]; 0 of 10 (dose: 32.0 mg/kg/injection, schedule: Q01DX005 (ip), vehicle: water).
For the compound `CN(C)C(=O)N(CCCl)N=O`, the T/C is, setting by setting: (dose: 6.25 mg/kg/injection, schedule: Q01DX001 (ip), vehicle: water) 125 % of control; (dose: 13.8 mg/kg/injection, schedule: Q01DX001 (ip), vehicle: DMSO) 147 % of control. Besides, the survivor count (dose: 50.0 mg/kg/injection, schedule: Q01DX001 (ip), vehicle: water) was 7 of 10.
For the compound `COc1nc(C(Cl)(Cl)Cl)c(Cl)c(OC)c1Cl`, the survivor count is reported as 9 of 10 under setting [4] and 3 of 10 under setting [5].
With `COC(=O)c1ccc(N=NN(C)C)cc1`, the T/C (dose: 16.0 mg/kg/injection, schedule: Q01DX005 (ip), vehicle: saline + alcohol) is 125 % of control; the T/C (dose: 32.0 mg/kg/injection, schedule: Q01DX005 (ip), vehicle: saline + alcohol) was 130 and 144 % of control.
For the compound `O=NN(CCCl)C(=O)NC1CCN(Cc2ccccc2)CC1`, for the setting “dose: 25.0 mg/kg/injection, schedule: Q01DX001 (ip), vehicle: water”, the T/C is 136 % of control. Moreover, the survivor count (dose: 200.0 mg/kg/injection, schedule: Q01DX001 (ip), vehicle: water) is reported as 10 of 10.
Regarding `C[n+]1c2ccccc2nc2c(N)cc(N)cc21`, the T/C (dose: 8.0 mg/kg/injection, schedule: Q01DX001 (ip), vehicle: saline) was 97 [survivors not given], 98 [survivors not given], 99 [survivors not given], 103 % of control; the T/C under setting [6] is 94 [survivors not given], 101, 106 [survivors not given], 107 % of control [survivors not given]; the T/C under setting [7] was 102 [survivors not given], 103 [survivors not given], 104, 104 % of control [survivors not given]; the T/C (dose: 64.0 mg/kg/injection, schedule: Q01DX001 (ip), vehicle: saline) was 97 [survivors not given], 98 [survivors not given], 103, 105 % of control [survivors not given].
For `O=c1ccc2ccccc2o1`, the survivor count (dose: 180.0 mg/kg/injection, schedule: Q01DX005 (ip), vehicle: saline with Tween-80) is on record as 6 of 10; the survivor count under setting [4] is 2 of 10; the survivor count (dose: 360.0 mg/kg/injection, schedule: Q01DX005 (ip), vehicle: saline with Tween-80) is reported as 5 of 10; the survivor count under setting [5] was 0 of 10; the survivor count (dose: 720.0 mg/kg/injection, schedule: Q01DX005 (ip), vehicle: saline with Tween-80) is reported as 6 of 10.
`COC1OC(CNC(=O)N(CCCl)N=O)C(O)C(O)C1O` (centres undefined): the T/C under setting [6] is 125 % of control; the T/C under setting [7] is 137 and 138 % of control.
Consider `CCOC(OCC)C(=O)OCC(=O)[C@]1(O)Cc2c(O)c3c(c(O)c2[C@@H](OC2CC(N)C(O)C(C)O2)C1)C(=O)c1c(OC)cccc1C3=O` (some centres undefined), for which the survivor count was 10 of 10 under setting [1]; 5 of 10 and 10 of 10 under setting [2]; 3 of 10 under setting [3].
`C[C@]12C=CC(=O)C=C1CC[C@@H]1[C@@H]2CC[C@]2(C)OC(=O)CC[C@@H]12`: the survivor count (dose: 256.0 mg/kg/injection, schedule: Q01DX005 (ip), vehicle: Klucel (hydroxypropylcellulose) (HPC)) was 0 of 6; the survivor count (dose: 256.0 mg/kg/injection, schedule: Q01DX005 (ip), vehicle: saline with Tween-80) is recorded as 5 of 10; the survivor count (dose: 512.0 mg/kg/injection, schedule: Q01DX005 (ip), vehicle: Klucel (hydroxypropylcellulose) (HPC)) was 0 of 6 (2×); the survivor count (dose: 512.0 mg/kg/injection, schedule: Q01DX005 (ip), vehicle: saline with Tween-80) was 3 of 10 and 6 of 10.
`N=[N+]=CC(=O)CCC(NC(=O)C(CCC(=O)C=[N+]=N)NC(=O)CCC(N)C(=O)O)C(=O)O` (centres undefined): the T/C (dose: 0.1 mg/kg/injection, schedule: Q01DX001 (ip), vehicle: Klucel (hydroxypropylcellulose) (HPC)) is 99, 105 [survivors not given], 109 % of control [survivors not given] (2×); the T/C (dose: 0.2 mg/kg/injection, schedule: Q01DX001 (ip), vehicle: Klucel (hydroxypropylcellulose) (HPC)) was 97 [survivors not given], 99, 102 [survivors not given], 105 % of control [survivors not given]; the T/C (dose: 0.4 mg/kg/injection, schedule: Q01DX001 (ip), vehicle: Klucel (hydroxypropylcellulose) (HPC)) is 97, 100 [survivors not given], 101 [survivors not given], 103 % of control [survivors not given]; the T/C (dose: 0.8 mg/kg/injection, schedule: Q01DX001 (ip), vehicle: Klucel (hydroxypropylcellulose) (HPC)) is 100, 107 [survivors not given], 108 [survivors not given], 111 % of control [survivors not given].
Regarding `CN(C)c1nc(N(C)C)nc(N(C)C)n1`, the survivor count (dose: 400.0 mg/kg/injection, schedule: Q01DX005 (ip), vehicle: saline) is given as 9 of 10; the survivor count (dose: 800.0 mg/kg/injection, schedule: Q01DX005 (ip), vehicle: saline with Tween-80) is listed as 0 of 10; the survivor count (dose: 1600.0 mg/kg/injection, schedule: Q01DX001 (ip), vehicle: saline with Tween-80) is given as 5 of 10.
In the case of `C1CN(P2(N3CC3)=NP(N3CC3)(N3CC3)=NP(N3CC3)(N3CC3)=N2)CCO1` (centres undefined), the survivor count runs as follows: (dose: 160.0 mg/kg/injection, schedule: Q01DX001 (ip), vehicle: saline) 9 of 10; (dose: 320.0 mg/kg/injection, schedule: Q01DX001 (ip), vehicle: saline) 9 of 10.
Consider `CC1(C)OCC(CO)(Nc2nc(N3CC3)nc(N3CC3)n2)CO1`, for which the survivor count is listed as 9 of 10 (dose: 10.0 mg/kg/injection, schedule: Q01DX005 (ip), vehicle: suspension in saline) and 8 of 10 (dose: 20.0 mg/kg/injection, schedule: Q01DX005 (ip), vehicle: suspension in saline).
For the compound `CC(=O)OCC1OC(n2cnc3c(=S)nc[nH]c32)C(OC(C)=O)C1OC(C)=O` (centres undefined), the survivor count (dose: 400.0 mg/kg/injection, schedule: Q01DX005 (ip), vehicle: suspension in saline) is listed as 10 of 10.

The values are drawn from PubChem BioAssay AID226 (DTP/NCI, 2004).
